Results from publication PMC4263767, “IL-28B is a Key Regulator of B- and T-Cell Vaccine Responses against Influenza” (PLoS Pathogens, 2014).

Amino acid sequences for entries named in this document (tags omitted). A change or cut given only in a name is not applied to a line headed by its entry.
UniProt Q8IU57: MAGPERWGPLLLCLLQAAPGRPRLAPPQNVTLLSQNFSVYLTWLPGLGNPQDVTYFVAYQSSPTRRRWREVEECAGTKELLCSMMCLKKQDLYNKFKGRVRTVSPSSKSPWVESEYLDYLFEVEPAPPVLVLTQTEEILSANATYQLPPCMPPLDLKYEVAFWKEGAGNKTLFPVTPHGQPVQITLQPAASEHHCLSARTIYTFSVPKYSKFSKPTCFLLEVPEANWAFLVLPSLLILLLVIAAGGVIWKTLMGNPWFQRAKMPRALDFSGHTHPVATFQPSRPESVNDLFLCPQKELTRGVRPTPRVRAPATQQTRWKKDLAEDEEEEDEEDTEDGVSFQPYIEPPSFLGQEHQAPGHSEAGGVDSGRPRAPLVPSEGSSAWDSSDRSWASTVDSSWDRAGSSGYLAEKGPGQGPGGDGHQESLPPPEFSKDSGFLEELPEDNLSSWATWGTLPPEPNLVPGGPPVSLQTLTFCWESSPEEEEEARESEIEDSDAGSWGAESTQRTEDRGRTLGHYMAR

Assays:
[1] = molecular target: recombinant IL-28 receptor alpha subunit (IL28RA) (human) (UniProt Q8IU57)
[2] = molecular target: recombinant IL-28 receptor alpha subunit (IL28RA) (human) (UniProt Q8IU57); assay: ELISA; competition ELISA: recombinant IL28RA coated on the plate, pre-treated with a fixed concentration of peptide (10 µM), then his-tagged IL-28B at 100 ng/mL; bound IL-28B detected with anti-his antibody; both purified

binding [1]: binds
binding [2]: binds
B1: recombinant, his-tagged IL-28B (ligand, UniProt Q8IZI9 22-196)
chain: VPVARLRGALPDARGCHIAQFKSLSPQELQAFKRAKDALEESLLLKDCKCRSRLFPRTWDLRQLQVRERPVALEAELALTLKVLEATADTDPALGDVLDQPLHTLHHILSQLRACIQPQPTAGPRTRGRLHHWLHRLQEAPKKESPGCLEASVTFNLFRLLTRDLNCVASGDLCV

Where two headings read alike, the source gives them in different places. Results are given in words; binding and its absence hold for the method and conditions named. A result given as binding can be weak or reduced; the word gives no strength. Where a sequence is shown, tags or fusion partners need not be part of it.
